These results are taken from publication PMC7819943, “Rice protein-binding microarrays: a tool to detect cis-acting elements near promoter regions in rice”.

The other results are listed elsewhere or left out.

This test has as its target T1, OsSMF1 (Oryza sativa, UniProt Q6ZLB0 1-436).
T1 sequence: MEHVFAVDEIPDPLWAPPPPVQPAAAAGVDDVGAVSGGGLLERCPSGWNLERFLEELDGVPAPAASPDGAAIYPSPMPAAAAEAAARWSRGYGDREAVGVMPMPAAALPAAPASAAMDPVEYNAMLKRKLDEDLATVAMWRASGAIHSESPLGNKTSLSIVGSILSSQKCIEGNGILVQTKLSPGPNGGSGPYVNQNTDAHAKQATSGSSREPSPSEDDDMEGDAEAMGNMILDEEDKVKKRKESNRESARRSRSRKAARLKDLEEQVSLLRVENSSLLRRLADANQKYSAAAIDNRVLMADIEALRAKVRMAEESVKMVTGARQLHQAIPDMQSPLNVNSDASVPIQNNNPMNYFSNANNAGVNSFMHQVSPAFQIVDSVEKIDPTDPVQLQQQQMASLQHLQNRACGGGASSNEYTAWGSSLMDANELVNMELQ
The experiment in a line: protein-binding microarray (RPBM); PBS, 2% BSA, 51.3 ng/ul salmon testes DNA, 50 uM zinc acetate, 200 nM TF, 25 C, 1 h; high values mean tight binding. The following applies: protein: recombinant; tags: N-terminal polyhistidine and DsRed monomer fusion (pET32a); chain copies: 2; label: CyDye5-dUTP incorporated in the synthesized complementary strand; 3' TTTTT single-stranded linker to array surface; dsDNA, one strand shown. The method in brief:
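Binding signal here means per-feature fluorescence intensity in arbitrary units. The values were read on an Axon 4000B scanner after a custom Agilent array, double-stranded by primer extension with Cy5-dUTP, was incubated with 200 nM protein at 25 °C for 1 h in PBS with 2% BSA, salmon testes DNA and 50 µM zinc acetate, then washed. The proteins were transcription factors with an N-terminal polyhistidine tag and DsRed, expressed in E. coli BL21-CodonPlus and purified on Ni–NTA.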
In the case of “ATTAGGCTCATTAGATTCGTCTTGCAAATTAGTCCAAGATCGGAGTCACCTAGTGCAG”, the binding signal was 3640 fluorescence intensity (a.u.). Under “GACCTCGCGAACAGCCCACACGTACGTTACTGACGCCATACGGAGTCACCTAGTGCAG” stands 4360 fluorescence intensity (a.u.); under “TTTGAATTTTCTGGAGCACGTCATTGTCAAGTCTCATGGACGGAGTCACCTAGTGCAG”, 6480 fluorescence intensity (a.u.); under “ACGAACTCAAACTAAGTGCCATTGTTCGTGGCATGGCAACCGGAGTCACCTAGTGCAG”, 3360 fluorescence intensity (a.u.). Under “GAGTTTAATAATGCGCGGCAACCCCATCACGTGTTCCACACGGAGTCACCTAGTGCAG” stands 3950 fluorescence intensity (a.u.); under “TCTTCATCACACATGACACAGGATTCCCATGACACATGCACGGAGTCACCTAGTGCAG”, 5270 fluorescence intensity (a.u.); under “TGCCGCCGCAGATGTACGGTCGCCATGGCAAGCAAGTTTGCGGAGTCACCTAGTGCAG”, 4160 fluorescence intensity (a.u.).

As to “ATTTTGACAAAACAAAGTGAGTGTGCTAGCTGGATCCATACGGAGTCACCTAGTGCAG”, the binding signal was 3390 fluorescence intensity (a.u.).

With “CCTCCGCCTTGTCCGCGTCCACGTCCACGGCCGCCGCCACCGGAGTCACCTAGTGCAG”, the binding signal was 6310 fluorescence intensity (a.u.).

On to “TGTGTCGGGGCCCTAACTTATGCAAGTTGGCCACGTCTGACGGAGTCACCTAGTGCAG”, for which the binding signal is 3420 fluorescence intensity (a.u.).

Consider “GTGCACACGTATGTATATACTATATATACATACGTATAAACGGAGTCACCTAGTGCAG”, for which the binding signal is 3560 fluorescence intensity (a.u.). Under “GACGGTGTCAAGGTCGACGTCATCCATGTAAGTCTCCCAACGGAGTCACCTAGTGCAG” stands 4870 fluorescence intensity (a.u.). For “AAAACAACGCCATGCGTACATACACGTTCATGTGCCGCGCCGGAGTCACCTAGTGCAG” the value was 3420 fluorescence intensity (a.u.). For “CAGATTAAGCGAACAATGCCACGTGGGTCAGCACACAAGCCGGAGTCACCTAGTGCAG” the value was 21400 fluorescence intensity (a.u.); for “TCCACCCCGTTCCCATCCCCACGCATCGCCGCACACACTGCGGAGTCACCTAGTGCAG”, 3300 fluorescence intensity (a.u.); for “GTTGCAAGTTGCCTCGCCGCACGGGCTCCCGTCACGACTCCGGAGTCACCTAGTGCAG”, 3350 fluorescence intensity (a.u.). As for “ACCTCATCCTCATTCGTCACCACTAGTCCTCGCTGTTGTTCGGAGTCACCTAGTGCAG”, the binding signal was 32500 fluorescence intensity (a.u.). For “GTATGGATGGATGCAGTGGAGAGAGAGGTGAGAGTAGGGGCGGAGTCACCTAGTGCAG” the value was 3170 fluorescence intensity (a.u.). Under “CACTGCTTGCGTTTCAATCCAGCCGCGTGGCACTATATCGCGGAGTCACCTAGTGCAG” stands 3260 fluorescence intensity (a.u.); under “TCGATCCGACGGTGGTGGCGGCGTTGGCGGCGTCCGCGGGCGGAGTCACCTAGTGCAG”, 3950 fluorescence intensity (a.u.); under “AGCTTCCAAGTCAAGATATGGTCTCCACGTATTTCTCTCTCGGAGTCACCTAGTGCAG”, 4890 fluorescence intensity (a.u.). As for “AGTAGTAGGGCGCGACACGCGTGTACGTTGCGATAGATGTCGGAGTCACCTAGTGCAG”, the binding signal was 3330 fluorescence intensity (a.u.). For “ACACACGCGTACATGAGTTGTGATCTGGTTGTGTATATATCGGAGTCACCTAGTGCAG” the value was 3520 fluorescence intensity (a.u.); for “ATGAACAGTACCACTTAGGTGATACTTTACGTGGAGGCTCCGGAGTCACCTAGTGCAG”, 4320 fluorescence intensity (a.u.). Turning to “GTCGGATCCCCGCGCAATCATACACACGTGTCGCCGTCGCCGGAGTCACCTAGTGCAG”, the binding signal is 8730 fluorescence intensity (a.u.). As for “CCTTTATAGATGTGGCCCAGCCTAGTCACGTGGATATTCTCGGAGTCACCTAGTGCAG”, the binding signal was 10100 fluorescence intensity (a.u.). For “GCACTTATGACTTTCATGGTCGAAAGAATATGTTTTGATGCGGAGTCACCTAGTGCAG” the value was 3290 fluorescence intensity (a.u.).

Regarding “ACACACCATCTACCTAGTTGCAATTTAATTTACTCTCTCCCGGAGTCACCTAGTGCAG”, the binding signal was 3170 fluorescence intensity (a.u.). In the case of “TGCCAGCGATGGACAAGCAAGGTGGAGTGGGAGCTGCTGCCGGAGTCACCTAGTGCAG”, the binding signal is 37800 fluorescence intensity (a.u.).

Consider “CGGTGGGTCCCACCTCCCTCACCACGCGTCCCCGGCCGATCGGAGTCACCTAGTGCAG”, for which the binding signal was 3330 fluorescence intensity (a.u.). Under “ACCACCGCCGCCGCCGTCCCAGACACCAACTCCACCGCATCGGAGTCACCTAGTGCAG” stands 4120 fluorescence intensity (a.u.); under “TTGCGACCTAGAGTTGAAGGGGATCTGCACACGCGTACCTCGGAGTCACCTAGTGCAG”, 3710 fluorescence intensity (a.u.). For “CGCTGACTCGGATGCCATGTCAGATAAACAACCCTCCATACGGAGTCACCTAGTGCAG” the value was 17300 fluorescence intensity (a.u.). For “TTATTTGATCATGTTCTAGATCTTAACTACTAATCTGACTCGGAGTCACCTAGTGCAG” the value was 3610 fluorescence intensity (a.u.). Take “CGGCTCCTGATATTGTGCTTATCGATTTGGGCTGCGTCTGCGGAGTCACCTAGTGCAG”: the binding signal is 3260 fluorescence intensity (a.u.).

For “CAAATCCAGCTCCTCCTCTTCCTCTTCCACCTCCTCCGCCCGGAGTCACCTAGTGCAG”, the binding signal is 3340 fluorescence intensity (a.u.). Under “CCCACCTGTGACTCAGCGAGCCGACTGCCACGTCAGACAACGGAGTCACCTAGTGCAG” stands 34400 fluorescence intensity (a.u.); under “TTTGGGTGATTATCTGATGATGCTATGGTTTGGATACAATCGGAGTCACCTAGTGCAG”, 4460 fluorescence intensity (a.u.).

As to “ACGGGCTCACGGGCAGTGACGGCAGCATCAACCGTTACCCCGGAGTCACCTAGTGCAG”, the binding signal is 4110 fluorescence intensity (a.u.).

In the case of “CTCTCTCTCTCTCTCTCTCTCTCTCTCTGTTTTACTACAACGGAGTCACCTAGTGCAG”, the binding signal was 3500 fluorescence intensity (a.u.). On to “CCGCCTGCCACCTCCTCGCCGCCCGTCGCGTCGACGCCTGCGGAGTCACCTAGTGCAG”, for which the binding signal is 4490 fluorescence intensity (a.u.). “TGCTGTCGATGTGCTTATCTTTCGATTTATTCCTCTCATCCGGAGTCACCTAGTGCAG”: the binding signal was 3200 fluorescence intensity (a.u.).
